Assay results published in PMC6615629, “Hsp70-nucleotide exchange factor (NEF) Fes1 has non-NEF roles in degradation of gluconeogenic enzymes and cell wall integrity” (PLoS Genetics, 2019).
These are yes or no findings as the source states them, for the method shown. Binding seen in cells or lysates may run through a third protein. Some results given as binding are weak or reduced against the parent protein; the word gives no strength. Where a sequence is shown, tags or fusion partners need not be part of it.

Legend:
[1] = biological target: T1, Fes1-GST (wild type) (yeast (S. cerevisiae)) (UniProt P38260); assay: pull-down; Fes1-GST fusions purified on GST-beads from lysates of fes1Δ yeast grown at 30°C with or without calcofluor white (60 min); eluted with 20 mM glutathione; western blot for Slt2
T1 sequence: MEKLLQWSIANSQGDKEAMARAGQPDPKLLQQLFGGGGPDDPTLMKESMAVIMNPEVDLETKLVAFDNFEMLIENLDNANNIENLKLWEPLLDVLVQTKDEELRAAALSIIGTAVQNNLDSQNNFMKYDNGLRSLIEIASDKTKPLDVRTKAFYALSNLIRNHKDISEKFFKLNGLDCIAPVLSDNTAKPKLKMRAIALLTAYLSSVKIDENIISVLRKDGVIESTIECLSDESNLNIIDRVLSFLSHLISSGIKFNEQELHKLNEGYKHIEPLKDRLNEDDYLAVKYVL

[2] = biological target: T2, Fes1^A79R,R195A-GST (yeast (S. cerevisiae)) (UniProt P38260); assay: as above
T2 sequence: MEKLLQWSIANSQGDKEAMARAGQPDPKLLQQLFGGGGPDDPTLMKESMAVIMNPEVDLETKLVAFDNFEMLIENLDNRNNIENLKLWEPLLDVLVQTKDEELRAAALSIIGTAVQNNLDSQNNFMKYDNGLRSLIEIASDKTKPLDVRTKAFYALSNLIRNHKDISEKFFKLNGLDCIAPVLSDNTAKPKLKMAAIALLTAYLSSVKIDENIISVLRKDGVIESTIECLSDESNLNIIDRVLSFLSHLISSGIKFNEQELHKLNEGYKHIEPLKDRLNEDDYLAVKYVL

B1: Slt2 (enzyme, UniProt Q00772 1-484)
chain: MADKIERHTFKVFNQDFSVDKRFQLIKEIGHGAYGIVCSARFAEAAEDTTVAIKKVTNVFSKTLLCKRSLRELKLLRHFRGHKNITCLYDMDIVFYPDGSINGLYLYEELMECDMHQIIKSGQPLTDAHYQSFTYQILCGLKYIHSADVLHRDLKPGNLLVNADCQLKICDFGLARGYSENPVENSQFLTEYVATRWYRAPEIMLSYQGYTKAIDVWSAGCILAEFLGGKPIFKGKDYVNQLNQILQVLGTPPDETLRRIGSKNVQDYIHQLGFIPKVPFVNLYPNANSQALDLLEQMLAFDPQKRITVDEALEHPYLSIWHDPADEPVCSEKFEFSFESVNDMEDLKQMVIQEVQDFRLFVRQPLLEEQRQLQLQQQQQQQQQQQQQQQQPSDVDNGNAAASEENYPKQMATSNSVAPQQESFGIHSQNLPRHDADFPPRPQESMMEMRPATGNTADIPPQNDNGTLLDLEKELEFGLDRKYF
- binding [1]: binds
- binding [2]: binds
